Test results published in patent publication US11787809B2 (NIHON NOHYAKU CO., LTD., priority 2015, dated 2023).
Some of these results come from one statement about several compounds together.

Key:
Format in all cases: in vivo
Plutella xylostella = assay: Insecticidal test on Plutella xylostella (dip of Chinese cabbage seedlings with laid eggs); conditions: 500 ppm, Chinese cabbage seedlings with laid eggs dipped about 30 seconds, 25° C., 6 days after dip treatment; criteria of Test Example 1
Excerpt: Insecticidal Test on Plutella xylostella
Adults of Plutella xylostella were released onto Chinese cabbage seedlings and allowed to lay eggs thereon. At 2 days after the release of the adults, the Chinese cabbage seedlings with laid eggs were dipped for about 30 seconds in agrochemical dispersions diluted to 500 ppm, each of which contained a different kind of oxime group-containing condensed heterocyclic compound represented by the general formula (1) of the present invention as an active ingredient. After air-dried, the seedlings were kept in a thermostatic chamber at 25° C. At 6 days after the dip treatment, the number of hatched larvae per plot was counted, the mortality rate was calculated according to the formula shown below, and the insecticidal effect was evaluated according to the criteria of Test Example 1. This test was conducted in triplicate using 10 adults of Plutella xylostella per plot. Corrected mortality rate (%)=100×(Number of hatched larvae in a non-treatment plot−Number of hatched larvae in a treatment plot)/Number of hatched larvae in a non-treatment plot [Math. 3]

Myzus persicae = assay: Test of control effect on Myzus persicae (foliar application to potted Chinese cabbage); conditions: 500 ppm dispersion in water, foliar application to potted Chinese cabbage plants, green peach aphids counted at 6 days after application
Laodelphax striatella = assay: Insecticidal test on Laodelphax striatella (rice seedling dip); conditions: 500 ppm, rice seedlings (Nihonbare) dipped 30 seconds, ten 3rd-instar larvae, 8 days after inoculation; criteria of Test Example 1
Excerpt: Insecticidal Test on Laodelphax striatella
The oxime group-containing condensed heterocyclic compounds represented by the general formula (1) of the present invention or salts thereof were separately dispersed in water and diluted to 500 ppm, and rice plant seedlings (variety: Nihonbare) were dipped in the agrochemical dispersions for 30 seconds. After air-dried, each seedling was put into a separate glass test tube and inoculated with ten 3rd-instar larvae of Laodelphax striatella, and then the glass test tubes were capped with cotton plugs. At 8 days after the inoculation, the numbers of surviving larvae and dead larvae were counted, the corrected mortality rate was calculated according to the formula shown below, and the insecticidal effect was evaluated according to the criteria of Test Example 1. Corrected mortality rate (%)=100×(Survival rate in a non-treatment plot−Survival rate in a treatment plot)/Survival rate in a non-treatment plot [Math. 2]

CCS(=O)(=O)c1cc(/C(C)=N/OCC(F)(F)C(F)(F)F)cnc1-c1nc2cc(C(F)(F)F)cnc2n1C [Compound 2-240]
A (the control rate is 100%.): insecticidal effect (corrected mortality rate, hatched larvae) (Plutella xylostella) | control effect (control rate) (Myzus persicae) | insecticidal effect (corrected mortality rate) (Laodelphax striatella)

CCS(=O)(=O)c1cc(/C=N\OC)cnc1-c1nc2cc(C(F)(F)F)cnc2n1C [Compound 2-241]
A (the control rate is 100%.): insecticidal effect (corrected mortality rate, hatched larvae) (Plutella xylostella) | control effect (control rate) (Myzus persicae) | insecticidal effect (corrected mortality rate) (Laodelphax striatella)

CCS(=O)(=O)c1cc(/C=N/O)cnc1-c1nc2cc(C(F)(F)F)ccc2o1 [Compound 4-1]
A (the control rate is 100%.): insecticidal effect (corrected mortality rate, hatched larvae) (Plutella xylostella) | control effect (control rate) (Myzus persicae) | insecticidal effect (corrected mortality rate) (Laodelphax striatella)

CCS(=O)(=O)c1cc(/C=N/OCC(F)(F)F)cnc1-c1nc2cc(C(F)(F)F)ccc2o1 [Compound 4-2]
A (the control rate is 100%.): insecticidal effect (corrected mortality rate, hatched larvae) (Plutella xylostella) | control effect (control rate) (Myzus persicae) | insecticidal effect (corrected mortality rate) (Laodelphax striatella)

CCS(=O)(=O)c1cc(/C=N/OCC(F)(F)C(F)(F)F)cnc1-c1nc2cc(C(F)(F)F)ccc2o1 [Compound 4-3]
A (the control rate is 100%.): insecticidal effect (corrected mortality rate, hatched larvae) (Plutella xylostella) | control effect (control rate) (Myzus persicae) | insecticidal effect (corrected mortality rate) (Laodelphax striatella)

CCS(=O)(=O)c1cc(/C=N/OCC(F)(F)C(F)(F)F)cnc1-c1nc2cc(SC(F)(F)F)ccc2o1 [Compound 4-13]
A (the control rate is 100%.): insecticidal effect (corrected mortality rate, hatched larvae) (Plutella xylostella) | control effect (control rate) (Myzus persicae) | insecticidal effect (corrected mortality rate) (Laodelphax striatella)

CC[S+]([O-])c1cc(/C=N/OCC(F)(F)F)cnc1-c1nc2cc(SC(F)(F)F)ccc2o1 (stereo not drawn) [Compound 4-14]
A (the control rate is 100%.): insecticidal effect (corrected mortality rate, hatched larvae) (Plutella xylostella) | control effect (control rate) (Myzus persicae) | insecticidal effect (corrected mortality rate) (Laodelphax striatella)

CC[S+]([O-])c1cc(/C=N/OCC(F)(F)C(F)(F)F)cnc1-c1nc2cc(SC(F)(F)F)ccc2o1 (stereo not drawn) [Compound 4-15]
A (the control rate is 100%.): insecticidal effect (corrected mortality rate, hatched larvae) (Plutella xylostella) | control effect (control rate) (Myzus persicae) | insecticidal effect (corrected mortality rate) (Laodelphax striatella)

CCS(=O)(=O)c1cc(/C=N/O)cnc1-c1nc2cc(OC(F)(F)F)ccc2o1 [Compound 4-29]
A (the control rate is 100%.): insecticidal effect (corrected mortality rate, hatched larvae) (Plutella xylostella) | control effect (control rate) (Myzus persicae) | insecticidal effect (corrected mortality rate) (Laodelphax striatella)

CCS(=O)(=O)c1cc(/C=N/OCC(F)F)cnc1-c1nc2cc(OC(F)(F)F)ccc2o1 [Compound 4-30]
A (the control rate is 100%.): insecticidal effect (corrected mortality rate, hatched larvae) (Plutella xylostella) | control effect (control rate) (Myzus persicae) | insecticidal effect (corrected mortality rate) (Laodelphax striatella)

CCS(=O)(=O)c1cc(/C=N\OCC(F)F)cnc1-c1nc2cc(OC(F)(F)F)ccc2o1 [Compound 4-31]
A (the control rate is 100%.): insecticidal effect (corrected mortality rate, hatched larvae) (Plutella xylostella) | control effect (control rate) (Myzus persicae) | insecticidal effect (corrected mortality rate) (Laodelphax striatella)

CCS(=O)(=O)c1cc(/C=N/OCC(F)(F)F)cnc1-c1nc2cc(OC(F)(F)F)ccc2o1 [Compound 4-32]
A (the control rate is 100%.): insecticidal effect (corrected mortality rate, hatched larvae) (Plutella xylostella) | control effect (control rate) (Myzus persicae) | insecticidal effect (corrected mortality rate) (Laodelphax striatella)

CCS(=O)(=O)c1cc(/C=N/OCC(F)(F)C(F)F)cnc1-c1nc2cc(OC(F)(F)F)ccc2o1 [Compound 4-33]
A (the control rate is 100%.): insecticidal effect (corrected mortality rate, hatched larvae) (Plutella xylostella) | control effect (control rate) (Myzus persicae) | insecticidal effect (corrected mortality rate) (Laodelphax striatella)

CCS(=O)(=O)c1cc(/C=N/OCC(F)(F)C(F)(F)F)cnc1-c1nc2cc(OC(F)(F)F)ccc2o1 [Compound 4-34]
A (the control rate is 100%.): insecticidal effect (corrected mortality rate, hatched larvae) (Plutella xylostella) | control effect (control rate) (Myzus persicae) | insecticidal effect (corrected mortality rate) (Laodelphax striatella)
